Results reported in patent US12331026B2 (NiKang Therapeutics, Inc., priority 2022, dated 2025).
The structures given here were assigned with low confidence; some may be wrong.

Each molecule was assayed against CDK2 (Homo sapiens, UniProt P24941) (assay: Phospho-RB measurement in OVCAR3 cells (HTRF phospho-RB S807/811)). Details: read-out: pRb (uM), phosphorylation of RB protein at S807/811, HTRF, 24 h compound treatment, 0.3 to 10,000 nM.
Experimental: The ability of compounds of Formula (I) to inhibit CDK2 was determined in OVCAR3 cells. Phosphorylation of RB protein at S807/811 were measured using HTRF phospho-RB cellular kits (Cat #64RBS807PEG) from Cisbio.
On Day 1, OVCAR3 cells were seeded into 96-well tissue-culture treated plates at 20,000 cells/well in 200 μL and incubated overnight at 37° C. in CO2 atmosphere. On Day 2, the cells were treated with test compounds at concentrations from 0.3 to 10,000 nM using HP D300 digital dispenser. Twenty-four hours after compound treatment, cell culture media was removed by flicking the plate and tapping the plate against clean paper towel. Immediately 30 μL 1× lysis buffer was supplemented from the kit and the plate was incubated at room temperature on shaker for 30 min. After homogenization by pipetting up and down, 8 μL cell lysate from 96-well cell culture plate was transferred to 384-well small volume white detection plate. 2 μL premixed detection solution was added and the plate was covered with sealer. To prepare the detection solution, d2 conjugated-phospho-RB antibody and Eu-cryptate conjugated phosphor-RB antibody were diluted into detection buffer following manufacturer's instruction.
Detection plates were incubated for 4 h at room temperature and read on ClarioStar (BMG Labtech) in TR-FRET mode ([…]). The TR-FRET ratio (665 nM1/620 nM) was plotted against the compound concentration and normalized to DMSO controls. Half maximal inhibition concentration (IC50) values are calculated with a four-parameter logistic fit using GraphPad Prism (version 8; La Jolla, CA).
Molecule `CN1CC2CCC(C1)N2c1nc(-c2cccc(NS(=O)(=O)c3c(F)cccc3C(F)(F)F)c2F)c(-c2ccnc(NC3C4CS(=O)(=O)CC43)n2)s1` (stereo not drawn) has an IC50 of 0.04 µM.
For `O=S1(=O)CC2(CC(Nc3nccc(-c4sc(N5C6CCC5CC6)nc4-c4cccc(NS(=O)(=O)c5c(F)cccc5F)c4F)n3)C2)C1`, the IC50 was 0.11 µM.
For `CC1CN(C2CC(F)(F)C2)CC(C)N1c1nc(-c2cccc(NS(=O)(=O)c3c(F)cccc3F)c2F)c(-c2ccnc(NC3CC4(C3)CS(=O)(=O)C4)n2)s1` (stereo not drawn), the IC50 was 0.17 µM.
